Laboratory results reported in ChEMBL document CHEMBL4316593 (Eur J Med Chem, 2019).
Further values from the same series stand in other lists.

Columns and labels:
Format in all cases: cell-based
Settings in all cases: U-87MG ATCC
[1] = Inhibition of RTK/PI3K/AKT/mTOR signaling in human U87 cells assessed as down regulation of PPP1R15A gene expression at cytotoxic IC50 measured after 48 hrs relative to control
[2] = Inhibition of RTK/PI3K/AKT/mTOR signaling in human U87 cells assessed as down regulation of GABRQ gene expression at cytotoxic IC50 measured after 48 hrs relative to control
[3] = Inhibition of RTK/PI3K/AKT/mTOR signaling in human U87 cells assessed as down regulation of ZNF266 gene expression at cytotoxic IC50 measured after 48 hrs relative to control
[4] = Inhibition of RTK/PI3K/AKT/mTOR signaling in human U87 cells assessed as down regulation of NUDT1 gene expression at cytotoxic IC50 measured after 48 hrs relative to control
[5] = Inhibition of RTK/PI3K/AKT/mTOR signaling in human U87 cells assessed as down regulation of CTSA gene expression at cytotoxic IC50 measured after 48 hrs relative to control
[6] = Inhibition of RTK/PI3K/AKT/mTOR signaling in human U87 cells assessed as down regulation of TNFRSF12A gene expression at cytotoxic IC50 measured after 48 hrs relative to control
[7] = Inhibition of RTK/PI3K/AKT/mTOR signaling in human U87 cells assessed as down regulation of TTPAL gene expression at cytotoxic IC50 measured after 48 hrs relative to control
[8] = Inhibition of RTK/PI3K/AKT/mTOR signaling in human U87 cells assessed as down regulation of EWSR1 gene expression at cytotoxic IC50 measured after 48 hrs relative to control
[9] = Inhibition of RTK/PI3K/AKT/mTOR signaling in human U87 cells assessed as down regulation of IKBKAP gene expression at cytotoxic IC50 measured after 48 hrs relative to control
[10] = Inhibition of RTK/PI3K/AKT/mTOR signaling in human U87 cells assessed as down regulation of CELF1 gene expression at cytotoxic IC50 measured after 48 hrs relative to control
[11] = Inhibition of RTK/PI3K/AKT/mTOR signaling in human U87 cells assessed as up regulation of GFY gene expression at cytotoxic IC50 measured after 48 hrs relative to control
[12] = Inhibition of RTK/PI3K/AKT/mTOR signaling in human U87 cells assessed as up regulation of LOXL2 gene expression at cytotoxic IC50 measured after 48 hrs relative to control
[13] = Inhibition of RTK/PI3K/AKT/mTOR signaling in human U87 cells assessed as up regulation of APOLD1 gene expression at cytotoxic IC50 measured after 48 hrs relative to control
[14] = Inhibition of RTK/PI3K/AKT/mTOR signaling in human U87 cells assessed as up regulation of PLEKHG2 gene expression at cytotoxic IC50 measured after 48 hrs relative to control
[15] = Inhibition of RTK/PI3K/AKT/mTOR signaling in human U87 cells assessed as up regulation of membrane palmitoylated protein 7 gene expression at cytotoxic IC50 measured after 48 hrs relative to control
[16] = Inhibition of RTK/PI3K/AKT/mTOR signaling in human U87 cells assessed as up regulation of acid sensing ion channel subunit 1 gene expression at cytotoxic IC50 measured after 48 hrs relative to control
[17] = Inhibition of RTK/PI3K/AKT/mTOR signaling in human U87 cells assessed as up regulation of pleckstrin homology domain containing A6 gene expression at cytotoxic IC50 measured after 48 hrs relative to control
[18] = Inhibition of RTK/PI3K/AKT/mTOR signaling in human U87 cells assessed as up regulation of engulfment and cell motility 3 gene expression at cytotoxic IC50 measured after 48 hrs relative to control
[19] = Inhibition of RTK/PI3K/AKT/mTOR signaling in human U87 cells assessed as up regulation of ribosomal modification protein rimK like family member A gene expression at cytotoxic IC50 measured after 48 hrs relative to control
[20] = Inhibition of RTK/PI3K/AKT/mTOR signaling in human U87 cells assessed as up regulation of MYC associated zinc finger protein gene expression at cytotoxic IC50 measured after 48 hrs relative to control
[21] = Inhibition of RTK/PI3K/AKT/mTOR signaling in human U87 cells assessed as up regulation of chromobox 5 gene expression at cytotoxic IC50 measured after 48 hrs relative to control
[22] = Inhibition of RTK/PI3K/AKT/mTOR signaling in human U87 cells assessed as up regulation of nuclear prelamin A recognition factor gene expression at cytotoxic IC50 measured after 48 hrs relative to control
[23] = Inhibition of RTK/PI3K/AKT/mTOR signaling in human U87 cells assessed as up regulation of inositol 1,4,5-trisphosphate receptor interacting protein like 2 gene expression at cytotoxic IC50 measured after 48 hrs relative to control
[24] = Inhibition of RTK/PI3K/AKT/mTOR signaling in human U87 cells assessed as up regulation of pleckstrin homology like domain family A member 3 gene expression at cytotoxic IC50 measured after 48 hrs relative to control
[25] = Inhibition of RTK/PI3K/AKT/mTOR signaling in human U87 cells assessed as up regulation of ERI1 gene expression at cytotoxic IC50 measured after 48 hrs relative to control
[26] = Inhibition of RTK/PI3K/AKT/mTOR signaling in human U87 cells assessed as up regulation of JPT2 gene expression at cytotoxic IC50 measured after 48 hrs relative to control
[27] = Inhibition of RTK/PI3K/AKT/mTOR signaling in human U87 cells assessed as up regulation of FOXK1 gene expression at cytotoxic IC50 measured after 48 hrs relative to control
[28] = Inhibition of RTK/PI3K/AKT/mTOR signaling in human U87 cells assessed as up regulation of SLMAP gene expression at cytotoxic IC50 measured after 48 hrs relative to control
[29] = Inhibition of RTK/PI3K/AKT/mTOR signaling in human U87 cells assessed as up regulation of FAM84B gene expression at cytotoxic IC50 measured after 48 hrs relative to control
[30] = Inhibition of RTK/PI3K/AKT/mTOR signaling in human U87 cells assessed as up regulation of ARHGAP23 gene expression at cytotoxic IC50 measured after 48 hrs relative to control
[31] = Inhibition of RTK/PI3K/AKT/mTOR signaling in human U87 cells assessed as up regulation of LMNA gene expression at cytotoxic IC50 measured after 48 hrs relative to control
[32] = Inhibition of RTK/PI3K/AKT/mTOR signaling in human U87 cells assessed as up regulation of MLEC gene expression at cytotoxic IC50 measured after 48 hrs relative to control

## CC(=O)C(=NNc1ccccc1C#N)C(C)=O
[1]
  log2FC: -1.89
[2]
  log2FC: -1.6
[3]
  log2FC: -1.43
[4]
  log2FC: -1.39
[5]
  log2FC: -1.11
[6]
  log2FC: -0.985
[7]
  log2FC: -0.765
[8]
  log2FC: -0.612
[9]
  log2FC: -0.502
[10]
  log2FC: -0.445
[11]
  log2FC: 2.8
[12]
  log2FC: 2.67
[13]
  log2FC: 2.33
[14]
  log2FC: 2.26
[15]
  log2FC: 1.45
[16]
  log2FC: 1.35
[17]
  log2FC: 1.32
[18]
  log2FC: 1.18
[19]
  log2FC: 0.951
[20]
  log2FC: 0.898
[21]
  log2FC: 0.82
[22]
  log2FC: 0.804
[23]
  log2FC: 0.775
[24]
  log2FC: 0.669
[25]
  log2FC: 0.586
[26]
  log2FC: 0.567
[27]
  log2FC: 0.535
[28]
  log2FC: 0.521
[29]
  log2FC: 0.514
[30]
  log2FC: 0.469
[31]
  log2FC: 0.448
[32]
  log2FC: 0.414
